Experimental data published in patent publication US20210002725A1, “METHODS FOR THE DIAGNOSIS OF METABOLIC DISORDERS USING EPIMETABOLIC SHIFTERS, MULTIDIMENSIONAL INTRACELLULAR MOLECULES, OR ENVIRONMENTAL INFLUENCES” (Berg LLC, priority 2009, published 2021).
At least one compound was matched to its structure with a doubt left.

How the values were obtained:
Bcl-2 = experiment: Western blot of Bcl-2 in Skmel-28 melanoma cells treated with CoQ10 building block components; assay type: cell-based
Method: (§1) Skmel-28 melanoma cells were cultured in DMEM/F12 supplemented with 5% Fetal Bovine Serum (FBS) and 1× final concentration of Antibiotics. The cells were grown to 85% confluency and treated with building block components for 3, 6, 12 and 24 hours. The cells were then pelleted and a Western blot analysis was performed.
(§2) In the Western Blot Analysis, the cells were pelleted in cold PBS, lysed, and the protein levels were quantified using a BCA protein assay. The whole cell lysate was loaded in a 4% loading 12% running Tris-HCl gel. The proteins were then transferred to a nitrocellulose paper then blocked with a 5% milk Tris-buffered solution for 1 hour. The proteins were then exposed to primary antibodies (Bcl-2 and Caspase-3) overnight. The nitrocellulose paper was then exposed to Pico Chemilluminescent for 5 min and the protein expression was recorded. After exposure, actin was quantified using the same method. Using ImageJ the levels of protein expression were quantified. A t-Test was used to analyze for statistical significance.

Caspase-3 = experiment: Western blot of Caspase-3 in Skmel-28 melanoma cells treated with CoQ10 building block components; assay type: cell-based
Method: as §1, §2

O=C(O)Cc1ccccc1 [Phenylacetate]
Bcl-2 expression (Bcl-2; 5 μM, 12 hours): decrease | Bcl-2 expression (Bcl-2; 5 μM, 24 hours): decrease | Bcl-2 expression (Bcl-2; 15 μM, 12 hours): decrease | Bcl-2 expression (Bcl-2; 15 μM, 24 hours): decrease | Caspase-3 expression (Caspase-3; 5 μM, 12 hours): increase | Caspase-3 expression (Caspase-3; 5 μM, 24 hours): increase | Caspase-3 expression (Caspase-3; 15 μM, 12 hours): increase | Caspase-3 expression (Caspase-3; 15 μM, 24 hours): increase
